No constants are given. Whether binding was seen depends on the method and setting. Binding seen in cells or lysates may run through a third protein. A result given as binding can be weak or reduced; the word gives no strength.
Biological target: GST-Med1-C (1371-1560), unmodified (UniProt Q925J9)
Assay: pull-down; GST fusion (unmodified or phosphorylated by purified ERK2) as bait, 35S labeled in vitro translated prey, incubated 2 h at 4°C, glutathione sepharose beads, SDS-PAGE and autoradiography; only the target purified

Chains of the proteins cited; added tags and fusions are not shown. Lines headed by an entry give the natural chain unless they say otherwise; changes in a name come on top.
UniProt Q925J9: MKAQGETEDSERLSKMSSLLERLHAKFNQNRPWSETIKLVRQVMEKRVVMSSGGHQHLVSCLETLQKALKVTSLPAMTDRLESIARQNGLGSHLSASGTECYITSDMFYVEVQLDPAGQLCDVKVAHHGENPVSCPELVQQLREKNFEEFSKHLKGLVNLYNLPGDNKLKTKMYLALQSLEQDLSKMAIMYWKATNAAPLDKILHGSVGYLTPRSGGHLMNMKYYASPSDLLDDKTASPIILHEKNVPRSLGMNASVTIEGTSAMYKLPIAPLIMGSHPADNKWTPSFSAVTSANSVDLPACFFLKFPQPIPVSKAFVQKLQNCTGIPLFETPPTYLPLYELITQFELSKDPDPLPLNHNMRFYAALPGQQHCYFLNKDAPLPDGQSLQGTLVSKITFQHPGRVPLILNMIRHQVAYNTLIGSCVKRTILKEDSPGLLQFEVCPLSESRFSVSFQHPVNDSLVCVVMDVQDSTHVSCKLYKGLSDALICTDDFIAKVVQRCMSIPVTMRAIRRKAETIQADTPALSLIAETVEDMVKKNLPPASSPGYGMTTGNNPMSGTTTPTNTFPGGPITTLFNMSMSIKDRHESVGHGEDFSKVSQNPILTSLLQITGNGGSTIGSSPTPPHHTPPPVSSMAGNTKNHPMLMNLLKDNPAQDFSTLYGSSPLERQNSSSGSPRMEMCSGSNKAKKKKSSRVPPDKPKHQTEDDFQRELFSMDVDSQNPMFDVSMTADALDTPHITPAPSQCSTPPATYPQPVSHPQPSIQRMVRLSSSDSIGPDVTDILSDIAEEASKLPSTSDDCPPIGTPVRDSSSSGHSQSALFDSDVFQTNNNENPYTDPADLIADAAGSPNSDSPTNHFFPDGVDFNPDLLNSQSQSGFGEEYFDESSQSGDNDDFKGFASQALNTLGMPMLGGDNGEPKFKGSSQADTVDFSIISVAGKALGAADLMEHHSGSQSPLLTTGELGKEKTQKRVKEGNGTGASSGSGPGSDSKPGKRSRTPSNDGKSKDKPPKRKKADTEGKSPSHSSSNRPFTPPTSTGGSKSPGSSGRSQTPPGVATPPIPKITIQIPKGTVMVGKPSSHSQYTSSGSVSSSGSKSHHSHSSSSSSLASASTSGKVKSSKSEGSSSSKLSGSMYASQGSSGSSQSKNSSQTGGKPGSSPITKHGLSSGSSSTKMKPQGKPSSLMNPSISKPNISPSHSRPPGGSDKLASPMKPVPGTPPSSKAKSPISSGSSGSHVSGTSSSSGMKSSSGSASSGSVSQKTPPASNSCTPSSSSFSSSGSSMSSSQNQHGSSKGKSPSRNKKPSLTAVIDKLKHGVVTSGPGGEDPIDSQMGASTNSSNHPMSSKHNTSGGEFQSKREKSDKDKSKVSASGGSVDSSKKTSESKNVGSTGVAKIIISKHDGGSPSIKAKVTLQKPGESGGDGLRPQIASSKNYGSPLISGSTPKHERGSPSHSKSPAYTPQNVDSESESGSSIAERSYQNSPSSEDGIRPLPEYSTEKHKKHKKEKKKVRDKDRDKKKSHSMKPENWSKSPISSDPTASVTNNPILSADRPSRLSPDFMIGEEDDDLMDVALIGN

binding: binds
B1: 35S labeled in vitro translated PIMT-N (1-334) (domain or fragment, UniProt Q96RS0 1-334)
chain: MCCEKWSRVAEMFLFIEEREDCKILCLCSRAFVEDRKLYNLGLKGYYIRDSGNNSGDQATEEEEGGYSCGTAESHDSKGIGLDESELDSEAELMRSMGLPLQFGRITAHKDFEVSMNTRNKVKIKKKKHQKKYLDEIVQESWRKEYEEDDILASDDPSSIEQYENTRTYELQSKKDTETENPPVENTLSPKLEITEKWEKYWNEYGGGLLWQSWQEKHPGQALSSEPWNFPDTKEEWEQHYSQLYWYYLEQFQYWEAQGWTFDASQSCDTDTYTSKTEADDKNDEKCMKVDLVSFPSSPIMVDNDSSGTSDKDHSEILDGISNIKLNSEEVTQS
modifications: 35S labeled

From article PMC3866170
